Protein sequences, listed by entry. Tags and fused reporters are not part of them. Lines headed by an entry give the natural chain unless they say otherwise; changes in a name come on top.
UniProt P34932: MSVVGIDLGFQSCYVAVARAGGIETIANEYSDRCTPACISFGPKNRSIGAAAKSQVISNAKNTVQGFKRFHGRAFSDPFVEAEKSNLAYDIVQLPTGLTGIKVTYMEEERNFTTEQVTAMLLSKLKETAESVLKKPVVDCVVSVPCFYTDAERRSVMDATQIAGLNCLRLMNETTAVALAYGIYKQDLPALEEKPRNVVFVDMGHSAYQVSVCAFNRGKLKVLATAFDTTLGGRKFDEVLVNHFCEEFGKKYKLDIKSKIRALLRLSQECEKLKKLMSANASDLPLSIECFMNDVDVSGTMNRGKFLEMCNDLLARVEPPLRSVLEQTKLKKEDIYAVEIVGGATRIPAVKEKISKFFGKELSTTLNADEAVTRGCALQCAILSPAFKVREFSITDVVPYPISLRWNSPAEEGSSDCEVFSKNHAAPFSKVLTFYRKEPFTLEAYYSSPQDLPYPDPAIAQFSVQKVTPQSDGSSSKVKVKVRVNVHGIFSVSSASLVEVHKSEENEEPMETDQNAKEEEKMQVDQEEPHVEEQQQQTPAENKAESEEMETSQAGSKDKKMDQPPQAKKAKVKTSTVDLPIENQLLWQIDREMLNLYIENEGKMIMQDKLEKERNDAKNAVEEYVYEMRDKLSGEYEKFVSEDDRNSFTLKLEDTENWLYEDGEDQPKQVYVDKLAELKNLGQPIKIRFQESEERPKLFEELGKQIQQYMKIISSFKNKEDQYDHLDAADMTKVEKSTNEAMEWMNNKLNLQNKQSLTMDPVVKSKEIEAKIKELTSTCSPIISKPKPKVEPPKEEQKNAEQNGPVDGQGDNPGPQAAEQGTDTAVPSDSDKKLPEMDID
UniProt Q5SSJ5: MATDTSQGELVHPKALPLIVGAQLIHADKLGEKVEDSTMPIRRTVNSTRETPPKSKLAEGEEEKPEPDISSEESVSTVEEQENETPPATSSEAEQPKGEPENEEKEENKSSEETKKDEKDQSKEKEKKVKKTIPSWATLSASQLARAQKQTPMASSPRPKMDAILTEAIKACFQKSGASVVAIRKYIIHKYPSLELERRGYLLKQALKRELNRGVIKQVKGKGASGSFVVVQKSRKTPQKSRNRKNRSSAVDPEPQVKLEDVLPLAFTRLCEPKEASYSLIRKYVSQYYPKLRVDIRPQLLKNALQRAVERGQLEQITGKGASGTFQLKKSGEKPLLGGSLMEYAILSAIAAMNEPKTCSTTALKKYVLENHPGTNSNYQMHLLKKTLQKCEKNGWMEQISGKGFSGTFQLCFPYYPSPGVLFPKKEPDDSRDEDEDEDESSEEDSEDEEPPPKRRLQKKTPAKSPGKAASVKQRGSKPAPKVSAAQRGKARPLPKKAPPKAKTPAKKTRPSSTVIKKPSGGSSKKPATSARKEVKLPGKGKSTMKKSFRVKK
UniProt P08238, whole entry, looked up: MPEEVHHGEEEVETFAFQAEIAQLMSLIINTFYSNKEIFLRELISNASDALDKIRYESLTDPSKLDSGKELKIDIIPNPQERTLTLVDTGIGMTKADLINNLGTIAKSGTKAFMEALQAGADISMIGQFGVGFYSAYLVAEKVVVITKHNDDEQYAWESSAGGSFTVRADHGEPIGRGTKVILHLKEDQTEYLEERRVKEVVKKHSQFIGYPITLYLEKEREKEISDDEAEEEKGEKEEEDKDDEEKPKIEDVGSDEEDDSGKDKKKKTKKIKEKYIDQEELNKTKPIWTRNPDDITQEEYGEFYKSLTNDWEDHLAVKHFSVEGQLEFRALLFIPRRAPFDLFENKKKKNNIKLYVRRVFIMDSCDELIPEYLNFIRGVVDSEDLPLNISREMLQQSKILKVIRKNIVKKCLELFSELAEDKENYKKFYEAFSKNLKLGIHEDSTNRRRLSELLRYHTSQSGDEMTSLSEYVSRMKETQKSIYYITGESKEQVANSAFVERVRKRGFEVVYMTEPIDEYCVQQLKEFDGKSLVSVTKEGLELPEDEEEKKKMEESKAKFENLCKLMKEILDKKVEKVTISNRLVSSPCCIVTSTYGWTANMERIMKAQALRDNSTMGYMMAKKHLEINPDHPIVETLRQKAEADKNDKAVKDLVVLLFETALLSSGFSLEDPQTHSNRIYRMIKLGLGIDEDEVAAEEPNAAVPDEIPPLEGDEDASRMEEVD
UniProt Q9NZL4: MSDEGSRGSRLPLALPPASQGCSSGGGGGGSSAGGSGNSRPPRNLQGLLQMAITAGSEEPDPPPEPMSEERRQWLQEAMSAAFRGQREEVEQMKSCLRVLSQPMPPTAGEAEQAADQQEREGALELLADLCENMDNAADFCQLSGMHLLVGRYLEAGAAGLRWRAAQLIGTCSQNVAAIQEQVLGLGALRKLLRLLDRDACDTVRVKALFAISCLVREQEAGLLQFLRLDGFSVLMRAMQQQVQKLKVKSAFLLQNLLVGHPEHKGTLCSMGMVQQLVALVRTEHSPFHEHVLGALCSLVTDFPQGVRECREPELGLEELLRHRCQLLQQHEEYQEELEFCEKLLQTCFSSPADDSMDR
UniProt Q92598: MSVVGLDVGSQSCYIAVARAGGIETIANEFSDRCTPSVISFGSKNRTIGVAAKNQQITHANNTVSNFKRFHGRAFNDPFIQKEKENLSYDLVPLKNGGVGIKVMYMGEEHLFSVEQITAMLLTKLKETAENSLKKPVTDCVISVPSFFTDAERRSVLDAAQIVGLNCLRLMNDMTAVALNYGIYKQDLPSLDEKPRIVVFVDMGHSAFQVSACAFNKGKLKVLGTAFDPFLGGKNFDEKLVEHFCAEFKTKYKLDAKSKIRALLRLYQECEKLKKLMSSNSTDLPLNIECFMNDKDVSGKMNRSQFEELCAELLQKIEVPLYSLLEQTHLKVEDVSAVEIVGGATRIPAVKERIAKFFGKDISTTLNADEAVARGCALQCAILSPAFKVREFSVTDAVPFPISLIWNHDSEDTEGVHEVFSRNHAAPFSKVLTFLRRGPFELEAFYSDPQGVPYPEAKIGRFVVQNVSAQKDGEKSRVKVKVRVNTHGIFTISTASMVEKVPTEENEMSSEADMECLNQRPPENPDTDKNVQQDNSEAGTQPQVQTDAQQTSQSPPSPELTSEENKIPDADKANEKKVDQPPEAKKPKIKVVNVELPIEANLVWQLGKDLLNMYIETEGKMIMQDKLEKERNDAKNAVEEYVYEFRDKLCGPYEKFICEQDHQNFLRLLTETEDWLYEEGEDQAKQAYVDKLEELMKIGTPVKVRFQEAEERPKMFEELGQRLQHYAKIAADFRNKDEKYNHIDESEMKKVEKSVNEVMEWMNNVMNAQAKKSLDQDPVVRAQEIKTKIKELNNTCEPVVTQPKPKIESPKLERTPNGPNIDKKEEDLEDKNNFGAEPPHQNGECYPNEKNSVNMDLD
UniProt P51659: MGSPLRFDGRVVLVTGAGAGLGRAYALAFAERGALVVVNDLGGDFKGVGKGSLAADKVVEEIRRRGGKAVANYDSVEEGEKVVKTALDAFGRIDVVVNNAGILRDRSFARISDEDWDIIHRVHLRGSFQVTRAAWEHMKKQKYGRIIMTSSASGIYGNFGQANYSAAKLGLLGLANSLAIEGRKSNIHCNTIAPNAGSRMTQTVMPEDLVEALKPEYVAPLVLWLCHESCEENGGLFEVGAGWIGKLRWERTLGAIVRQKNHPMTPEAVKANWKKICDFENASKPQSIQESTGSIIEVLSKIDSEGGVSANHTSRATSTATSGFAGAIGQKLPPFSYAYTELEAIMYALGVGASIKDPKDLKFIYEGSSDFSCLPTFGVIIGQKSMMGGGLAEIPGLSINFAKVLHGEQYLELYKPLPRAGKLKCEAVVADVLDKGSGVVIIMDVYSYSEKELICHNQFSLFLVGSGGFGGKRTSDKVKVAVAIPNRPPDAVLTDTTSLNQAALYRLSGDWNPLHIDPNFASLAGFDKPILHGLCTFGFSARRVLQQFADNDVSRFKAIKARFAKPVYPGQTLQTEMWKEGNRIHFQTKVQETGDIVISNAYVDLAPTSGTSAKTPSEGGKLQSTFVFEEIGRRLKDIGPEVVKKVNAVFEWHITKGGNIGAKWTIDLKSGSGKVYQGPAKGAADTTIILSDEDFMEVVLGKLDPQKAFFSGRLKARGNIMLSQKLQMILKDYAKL
UniProt O43719: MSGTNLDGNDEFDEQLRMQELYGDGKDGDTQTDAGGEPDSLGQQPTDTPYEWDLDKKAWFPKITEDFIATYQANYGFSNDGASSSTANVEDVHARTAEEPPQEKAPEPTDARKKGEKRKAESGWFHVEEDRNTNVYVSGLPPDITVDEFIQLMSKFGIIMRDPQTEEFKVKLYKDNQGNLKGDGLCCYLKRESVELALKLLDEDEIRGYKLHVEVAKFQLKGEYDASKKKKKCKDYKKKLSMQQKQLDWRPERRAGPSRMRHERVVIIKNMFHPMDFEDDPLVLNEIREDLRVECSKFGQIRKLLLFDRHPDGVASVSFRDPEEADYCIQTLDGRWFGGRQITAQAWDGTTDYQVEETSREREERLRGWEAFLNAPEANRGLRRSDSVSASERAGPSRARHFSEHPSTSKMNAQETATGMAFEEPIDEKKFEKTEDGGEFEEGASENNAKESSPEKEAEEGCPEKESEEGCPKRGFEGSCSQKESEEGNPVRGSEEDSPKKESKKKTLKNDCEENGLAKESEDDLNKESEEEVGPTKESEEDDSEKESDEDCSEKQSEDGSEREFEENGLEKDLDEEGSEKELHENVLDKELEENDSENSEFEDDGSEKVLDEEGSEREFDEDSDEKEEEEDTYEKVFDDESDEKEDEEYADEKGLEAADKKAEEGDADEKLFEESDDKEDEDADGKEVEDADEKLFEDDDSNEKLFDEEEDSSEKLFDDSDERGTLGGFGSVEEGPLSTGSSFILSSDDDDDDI
UniProt Q8IX15: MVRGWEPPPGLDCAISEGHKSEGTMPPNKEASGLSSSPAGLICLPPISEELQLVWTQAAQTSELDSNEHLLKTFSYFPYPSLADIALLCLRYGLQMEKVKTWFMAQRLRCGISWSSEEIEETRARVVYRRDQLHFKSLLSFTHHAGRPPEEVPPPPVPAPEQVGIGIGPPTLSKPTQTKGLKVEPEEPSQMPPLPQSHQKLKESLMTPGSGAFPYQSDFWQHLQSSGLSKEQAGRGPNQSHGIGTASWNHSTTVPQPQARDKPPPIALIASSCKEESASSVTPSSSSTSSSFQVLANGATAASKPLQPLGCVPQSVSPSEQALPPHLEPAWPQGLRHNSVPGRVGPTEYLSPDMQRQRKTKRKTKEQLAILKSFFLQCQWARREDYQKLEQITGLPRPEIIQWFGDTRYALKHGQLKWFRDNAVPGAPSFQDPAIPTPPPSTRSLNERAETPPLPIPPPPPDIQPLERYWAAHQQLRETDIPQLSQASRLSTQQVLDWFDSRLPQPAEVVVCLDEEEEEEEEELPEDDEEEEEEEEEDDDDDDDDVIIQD
UniProt P52272: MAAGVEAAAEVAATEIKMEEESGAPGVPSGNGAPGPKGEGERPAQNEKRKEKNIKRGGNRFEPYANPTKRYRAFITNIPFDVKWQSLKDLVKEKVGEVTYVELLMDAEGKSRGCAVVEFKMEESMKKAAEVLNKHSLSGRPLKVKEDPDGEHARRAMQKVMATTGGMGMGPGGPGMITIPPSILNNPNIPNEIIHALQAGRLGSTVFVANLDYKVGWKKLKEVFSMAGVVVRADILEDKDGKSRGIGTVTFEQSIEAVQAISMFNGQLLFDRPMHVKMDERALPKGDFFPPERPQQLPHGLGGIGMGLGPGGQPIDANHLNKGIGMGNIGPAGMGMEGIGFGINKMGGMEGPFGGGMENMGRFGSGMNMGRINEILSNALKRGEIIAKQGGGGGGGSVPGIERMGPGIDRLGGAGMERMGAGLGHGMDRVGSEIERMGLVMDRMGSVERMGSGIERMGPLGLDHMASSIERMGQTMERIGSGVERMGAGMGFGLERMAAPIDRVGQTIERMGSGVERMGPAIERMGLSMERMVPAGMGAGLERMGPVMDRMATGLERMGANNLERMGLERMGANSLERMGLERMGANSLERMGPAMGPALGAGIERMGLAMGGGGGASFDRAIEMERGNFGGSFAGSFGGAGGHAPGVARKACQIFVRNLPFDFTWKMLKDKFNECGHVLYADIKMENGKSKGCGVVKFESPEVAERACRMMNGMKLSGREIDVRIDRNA
UniProt Q6YN16: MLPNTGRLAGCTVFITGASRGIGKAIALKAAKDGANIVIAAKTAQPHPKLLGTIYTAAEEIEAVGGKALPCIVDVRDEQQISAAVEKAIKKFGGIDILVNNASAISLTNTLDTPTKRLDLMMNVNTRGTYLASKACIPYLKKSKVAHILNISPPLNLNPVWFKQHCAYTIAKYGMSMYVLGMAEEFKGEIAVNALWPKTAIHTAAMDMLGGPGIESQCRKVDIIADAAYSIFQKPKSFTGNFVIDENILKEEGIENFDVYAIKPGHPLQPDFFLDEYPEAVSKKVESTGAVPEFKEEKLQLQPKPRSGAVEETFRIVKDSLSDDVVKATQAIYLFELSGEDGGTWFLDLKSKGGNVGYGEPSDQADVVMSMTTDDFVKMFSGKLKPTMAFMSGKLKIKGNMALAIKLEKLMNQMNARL

Some of the results follow.
What follows are targets tested with CC1Cc2ccccc2N1C(=O)C1CCCN(C1)C(=O)CCl (mixture of isomers) [TRIM25 ligand 11 (diastereomer mixture)] (assay: probe-labelled cysteine peptide fold change vs DMSO (competition) (log2 fold change); higher = less target engagement (more negative = stronger competition)). Conditions: 10 µM; THP-1; incubation time: 4 h.
For “HSPA4_P34932_779_ELTSTCSPIISKPKPK (UniProt P34932)”, the “probe-labelled cysteine peptide fold change” value was -0.489. For “HNRNPUL2_Q1KMD3_538_NFILDQCNVYNSGQR (UniProt Q1KMD3)”, the “probe-labelled cysteine peptide fold change” value was -0.0123. With “HP1BP3_Q5SSJ5_359_TCSTTALK (UniProt Q5SSJ5)” the “probe-labelled cysteine peptide fold change” value was -0.00507. With “HSP90AB1_P08238_412_CLELFSELAEDK (UniProt P08238)” the “probe-labelled cysteine peptide fold change” value was 0.038. For “HNRNPDL_O14979_277_RGFCFITYTDEEPVKK (UniProt O14979)”, the “probe-labelled cysteine peptide fold change” value was -0.177. “HSPA4_P34932_34_CTPACISFGPK (UniProt P34932)” was tested, and the “probe-labelled cysteine peptide fold change” value was 0.0618. With “HPCAL1_P37235_38_DCPTGHLTVDEFKK (UniProt P37235)” the “probe-labelled cysteine peptide fold change” value was -0.0734. For “HSPBP1_Q9NZL4_325_CQLLQQHEEYQEELEFCEK (UniProt Q9NZL4)”, the “probe-labelled cysteine peptide fold change” value was -0.173. For “HSPH1_Q92598_310_SQFEELCAELLQK (UniProt Q92598)”, the “probe-labelled cysteine peptide fold change” value was -0.173. “HSF1_Q00613_153_GKQECMDSK (UniProt Q00613)” was tested, and the “probe-labelled cysteine peptide fold change” value was -0.139. In the case of “HSD17B4_P51659_277_KICDFENASKPQSIQESTGSIIEVLSK (UniProt P51659)”, the “probe-labelled cysteine peptide fold change” value is reported as -0.118. For “HSPA4_P34932_167_SVMDATQIAGLNCLR (UniProt P34932)”, the “probe-labelled cysteine peptide fold change” value was 0.00217. For “HNMT_P50135_31_FLNHSTEHQCMQEFMDKK (UniProt P50135)”, the “probe-labelled cysteine peptide fold change” value was -0.0809. “HSPH1_Q92598_650_LCGPYEK (UniProt Q92598)” was tested, and the “probe-labelled cysteine peptide fold change” value was -0.0962. In the case of “HSP90AB1_P08238_366_RVFIMDSCDELIPEYLNFIR (UniProt P08238)”, the “probe-labelled cysteine peptide fold change” value is reported as -0.185. With “HMOX2_P30519_127_DMEYFFGENWEEQVQCPK (UniProt P30519)” the “probe-labelled cysteine peptide fold change” value was -0.0367. With “HTATIP2_Q9BUP3_172_YSVFRPGVLLCDR (UniProt Q9BUP3)” the “probe-labelled cysteine peptide fold change” value was -0.0618. In the case of “HSD17B12_Q53GQ0_166_KMININILSVCK (UniProt Q53GQ0)”, the “probe-labelled cysteine peptide fold change” value is reported as -0.306. In the case of “HNRNPLL_Q8WVV9_505_TLSGLLEWECK (UniProt Q8WVV9)”, the “probe-labelled cysteine peptide fold change” value is reported as 0.0315. In the case of “HTATSF1_O43719_328_DPEEADYCIQTLDGR (UniProt O43719)”, the “probe-labelled cysteine peptide fold change” value is reported as 0.0376. “HNRNPA3_P51991_64_WGTLTDCVVMR (UniProt P51991)” was tested, and the “probe-labelled cysteine peptide fold change” value was -0.152. For “HOMEZ_Q8IX15_110_CGISWSSEEIEETR (UniProt Q8IX15)”, the “probe-labelled cysteine peptide fold change” value was 0.0831. With “HPDL_Q96IR7_9_LCHIAFHVPAGQPLAR (UniProt Q96IR7)” the “probe-labelled cysteine peptide fold change” value was -0.126. For “HNRNPA2B1_P22626_50_LTDCVVMR (UniProt P22626)”, the “probe-labelled cysteine peptide fold change” value was -0.0523. With “HTATSF1_O43719_462_EAEEGCPEK (UniProt O43719)” the “probe-labelled cysteine peptide fold change” value was -0.0787. With “HNRNPM_P52272_676_DKFNECGHVLYADIK (UniProt P52272)” the “probe-labelled cysteine peptide fold change” value was -0.633. In the case of “HNRNPM_P52272_114_GCAVVEFK (UniProt P52272)”, the “probe-labelled cysteine peptide fold change” value is reported as -0.0271. In the case of “HNRNPU_Q00839_335_VCFEMK (UniProt Q00839)”, the “probe-labelled cysteine peptide fold change” value is reported as 0.159. For “HSPA2_P54652_191_GCAGGEK (UniProt P54652)”, the “probe-labelled cysteine peptide fold change” value was -0.0761. “HNRNPUL2_Q1KMD3_408_NCVVELNFGQKEEPFFPPPEEFVFIHAVPVEER (UniProt Q1KMD3)” was tested, and the “probe-labelled cysteine peptide fold change” value was -0.173. For “HSDL2_Q6YN16_218_TAIHTAAMDMLGGPGIESQCR (UniProt Q6YN16)”, the “probe-labelled cysteine peptide fold change” value was -0.0961. “HNRNPK_P61978_184_LFQECCPHSTDR (UniProt P61978)” was tested, and the “probe-labelled cysteine peptide fold change” value was 0.0719. For “HSPA4_P34932_417_WNSPAEEGSSDCEVFSK (UniProt P34932)”, the “probe-labelled cysteine peptide fold change” value was 0.0812. “HSD17B4_P51659_455_ELICHNQFSLFLVGSGGFGGKR (UniProt P51659)” was tested, and the “probe-labelled cysteine peptide fold change” value was -0.0969. For “HMGXB3_Q12766_800_TCGLKPSTLK (UniProt Q12766)”, the “probe-labelled cysteine peptide fold change” value was -0.128. For “HSD17B4_P51659_373_FIYEGSSDFSCLPTFGVIIGQK (UniProt P51659)”, the “probe-labelled cysteine peptide fold change” value was 0.139.

Reference: the supplement of paper PMC12067093, “Discovery and optimisation of a covalent ligand for TRIM25 and its application to targeted protein ubiquitination” (Chemical Science, 2025)
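Further: competitive chemoproteomic profiling in live THP-1 cells with an iodoacetamide desthiobiotin (IA-DTB) probe, comparing probe-labelled peptide intensities in compound-treated cells against DMSO-treated controls.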
